Values quoted from earlier work as cited in US9539176B2, “Process for manufacturing a pharmaceutical dosage form comprising nifedipine and candesartan cilexetil” (BAYER PHARMA AKTIENGESELLSCHAFT, priority 2012, dated 2017).

Conditions: in vivo; cited from earlier work

In the case of `COC(=O)C1=C(C)NC(C)=C(C(=O)OC)C1c1ccccc1[N+](=O)[O-]` [nifedipine], the plasma half-life is given as “about 2 hours”.
